In US12624350B2, “High-throughput single-nuclei and single-cell libraries and methods of making and of using” (ILLUMINA, INC., priority 2019, dated 2026):
For at least one compound, name, drawing or mass did not settle the structure.

Assays:
Assay type in all cases: cell-based, human
A549, K562, and MCF7 = test: viability estimates from hash-based counts of nuclei in the sci-Plex screen; conditions: K562 compared with A549 and MCF7, 24 hours
[1] = tested on: A549, MCF7 and K562 cells; test: cell counts of bosutinib exposed cells; conditions: 0.1, 1 and 10 μM, 24 hours, K562 versus A549 and MCF7
A549 [2] = test: pilot sci-Plex experiment (sci-RNA-seq2), four compounds; conditions: A549, 24 hours, seven doses
A549 [3] = test: sci-Plex of pracinostat co-treatment with acetyl-CoA precursors or enzyme inhibitors; conditions: 24 hours
From the text: (§1) To validate this further, we sought to shift the distribution of cells along the HDAC inhibitor trajectory by modulating cellular acetyl-CoA levels. We treated A549 and MCF7 cells with pracinostat in the presence and absence of acetyl-CoA precursors (acetate, pyruvate, or citrate) or inhibitors of enzymes (ACLY, ACSS2, or PDH) involved in replenishing acetyl-CoA pools. After treatment, cells were harvested and processed using sci-Plex and trajectories constructed for each cell line (FIGS. 39 and 40).
(§2) For 96-well experiments, adherent cells were trypsinized, washed with PBS and plated in tissue culture treated 96 well flat bottom plates (Thermo Fisher Scientific, cat no. 12-656-66) at 25,000 cells per well in 100 μL of media. Suspension cells were washed with PBS and plated in 96 well V-bottom tissue culture plates (Thermo Fisher Scientific, cat no. 549935) at 25,000 cells per well in 100 μL of media. […]
(§3) Gene expression profiles were visualized with Monocle 3, which uses UMAP to project them into a two or three dimensional space. […] Size factors were calculated as the log UMI counts observed in a single cell divided by the geometric mean of log UMI counts from all measured cells. […] Unless otherwise noted, UMAP was run with the following parameters: 50 nearest neighbors, min_dist=0.1, inter-cell distance assessed by cosine similarity. […]

MCF7 [4] = test: as above; conditions: 24 hours
From the text: as §1, §2, §3

A549 [5] = test: large-scale sci-Plex screen (sci-RNA-seq3) of 188 compounds; conditions: A549 (activating KRAS mutation), 24 hours
K562 = test: as above; conditions: K562 (activating ABL mutation), 24 hours
MCF7 [6] = test: as above; conditions: MCF7, 24 hours

## COc1cc(Nc2c(C#N)cnc3cc(OCCCN4CCN(C)CC4)c(OC)cc23)c(Cl)cc1Cl [bosutinib]
A549, K562, and MCF7
  sensitivity by viability estimates from hash-based counts of nuclei: higher sensitivity of K562
[1]
  cell count viability estimates: confirmed by cell counting

## C[C@@H]1C[C@H]2[C@@H]3CCC4=CC(=O)C=C[C@]4(C)[C@@]3(F)[C@@H](O)C[C@]2(C)[C@@]1(O)C(=O)CO [dexamethasone]
A549 [2]
  drug-specific pathways revealed by gene ontology analysis of differentially expressed genes: hormone signaling

## CC(=O)C(=O)O [pyruvate]
A549 [3]
  shift of pracinostat treated cells along the HDAC inhibitor trajectory: capable of blocking pracinostat treated cells from reaching the end of the HDAC inhibitor trajectory
MCF7 [4]
  shift of pracinostat treated cells along the HDAC inhibitor trajectory: capable of blocking pracinostat treated cells from reaching the end of the HDAC inhibitor trajectory

## CC(=O)Nc1cccc(-n2c(=O)n(C3CC3)c(=O)c3c(Nc4ccc(I)cc4F)n(C)c(=O)c(C)c32)c1 [trametinib]
A549 [5]
  transcriptional response (UMAP projection versus vehicle controls): strong, specific transcriptional response
K562
  transcriptional response (UMAP projection versus vehicle controls): strong, specific transcriptional response
MCF7 [6]
  transcriptional response (UMAP projection versus vehicle controls): limited effects
